Test results published in publication PMC3968096.
Construct, isoform or probe ends are uncertain for at least one entry. Results from cells or extracts need not show a direct contact. For part of these data: Negatives hold for the conditions tested.

Chains of the proteins cited; added tags and fusions are not shown. Chains listed by the source or under a name are the forms on record and can include a tag or linker.
VEGF165 yeast-displayed (human), one chain, as listed by the source: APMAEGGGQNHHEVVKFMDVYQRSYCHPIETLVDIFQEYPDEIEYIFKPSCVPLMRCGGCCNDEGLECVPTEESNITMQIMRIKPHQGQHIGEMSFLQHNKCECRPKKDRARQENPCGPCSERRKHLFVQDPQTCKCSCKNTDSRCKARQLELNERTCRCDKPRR
VEGF110 yeast-displayed del137-191 (human), one chain, as listed by the source: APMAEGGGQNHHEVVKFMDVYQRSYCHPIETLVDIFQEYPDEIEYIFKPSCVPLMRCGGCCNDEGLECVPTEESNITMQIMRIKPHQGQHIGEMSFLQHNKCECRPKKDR

Legend:
[1] = system: VEGF165 yeast-displayed (human); assay: competition, flow cytometry; conditions: 100 nM heparin post-incubation, not reduced; 10 mM HEPES pH 7.9, 125 mM NaCl, 25 mM KCl, 1 mM MgCl2; F-EMSA at room temperature for 2 h, 5% PAGE at 4 C; flow cytometry in the same buffer; protein on the cell surface; residues 27-191; protein details: Aga2 fusion, HA, c-myc; label: 5' fluorescein (F-EMSA), 5' biotin (flow); folded or branched DNA
[2] = system: VEGF165 yeast-displayed (human); assay: flow cytometry, yeast display; conditions: Kd in close agreement with F-EMSA; 10 mM HEPES pH 7.9, 125 mM NaCl, 25 mM KCl, 1 mM MgCl2; F-EMSA at room temperature for 2 h, 5% PAGE at 4 C; flow cytometry in the same buffer; protein on the cell surface; residues 27-191; protein details: Aga2 fusion, HA, c-myc; label: 5' fluorescein (F-EMSA), 5' biotin (flow); folded or branched DNA
[3] = system: VEGF110 yeast-displayed del137-191 (human); assay: flow cytometry, yeast display; conditions: 10 mM HEPES pH 7.9, 125 mM NaCl, 25 mM KCl, 1 mM MgCl2; F-EMSA at room temperature for 2 h, 5% PAGE at 4 C; flow cytometry in the same buffer; protein on the cell surface; residues 27-136; protein details: Aga2 fusion, HA, c-myc; label: 5' fluorescein (F-EMSA), 5' biotin (flow); folded or branched DNA

| Sequence | binding result [1] | binding result [2] | binding result [3] |
| --- | --- | --- | --- |
| TCTAGCCCACTGCATAGAGGTAGCCACGTATGTGGGTGTTACCCATTCGTAGCTACCGGTG [hVap1_T1979] | binds | binds | no binding |
| TCTAGCCCACTGCATAGAGGTAGCCACGTATGTTCGTGGCTACCGGTG [hVap1_Stem] | binds | binds | no binding |
| TCTAGCCCACTGCATAGAGGTAGCTACCGGTG [hVap1_SST] | binds | binds | no binding |
